Test results from paper doi:10.1101/2022.08.31.505729.
Results are given in words; binding and its absence hold for the method and conditions named. Binding seen in cells or lysates may run through a third protein. Here binding means that the protein was enriched with, or labelled near, the bait; the list need not be complete.

Amino acid sequences for entries named in this document (tags omitted). A change or cut given only in a name is not applied to a line headed by its entry.
UniProt Q8S9J8: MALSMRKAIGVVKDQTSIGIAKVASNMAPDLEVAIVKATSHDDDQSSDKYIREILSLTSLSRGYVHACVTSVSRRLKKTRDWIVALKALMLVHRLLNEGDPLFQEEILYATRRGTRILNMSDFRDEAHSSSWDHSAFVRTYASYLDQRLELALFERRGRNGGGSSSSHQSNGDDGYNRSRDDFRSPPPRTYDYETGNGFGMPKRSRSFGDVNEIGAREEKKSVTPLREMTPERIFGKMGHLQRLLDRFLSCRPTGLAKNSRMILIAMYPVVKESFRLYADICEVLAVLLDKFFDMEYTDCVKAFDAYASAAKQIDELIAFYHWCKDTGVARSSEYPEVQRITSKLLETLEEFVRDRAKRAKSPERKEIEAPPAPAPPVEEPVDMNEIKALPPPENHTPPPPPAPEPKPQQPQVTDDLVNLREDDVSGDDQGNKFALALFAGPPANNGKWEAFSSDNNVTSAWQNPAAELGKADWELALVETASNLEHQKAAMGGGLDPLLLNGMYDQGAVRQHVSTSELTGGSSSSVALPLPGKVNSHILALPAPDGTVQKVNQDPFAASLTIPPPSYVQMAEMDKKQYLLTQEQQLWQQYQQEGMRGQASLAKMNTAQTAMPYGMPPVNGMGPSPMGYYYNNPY

Assays:
Assay in all cases: affinity purification with mass spectrometry
[1] = target: T1, SH3P1 (Arabidopsis thaliana) (UniProt Q9C865)
T1 sequence: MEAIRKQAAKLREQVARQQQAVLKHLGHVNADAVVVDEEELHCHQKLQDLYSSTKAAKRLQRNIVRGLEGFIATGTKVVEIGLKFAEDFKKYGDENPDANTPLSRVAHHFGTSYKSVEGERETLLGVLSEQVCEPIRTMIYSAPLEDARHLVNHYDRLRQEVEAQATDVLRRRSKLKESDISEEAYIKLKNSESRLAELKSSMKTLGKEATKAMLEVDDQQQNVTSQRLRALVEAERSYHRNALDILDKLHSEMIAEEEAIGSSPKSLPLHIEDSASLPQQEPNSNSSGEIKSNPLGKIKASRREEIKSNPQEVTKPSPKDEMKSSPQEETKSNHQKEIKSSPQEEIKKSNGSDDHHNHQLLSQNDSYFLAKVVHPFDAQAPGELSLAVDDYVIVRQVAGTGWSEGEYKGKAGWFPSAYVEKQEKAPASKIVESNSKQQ

[2] = target: CAP1 (Arabidopsis thaliana) (UniProt Q8S9J8)
[3] = target: T2, AP3B (Arabidopsis thaliana) (UniProt Q9M2T1)
T2 sequence: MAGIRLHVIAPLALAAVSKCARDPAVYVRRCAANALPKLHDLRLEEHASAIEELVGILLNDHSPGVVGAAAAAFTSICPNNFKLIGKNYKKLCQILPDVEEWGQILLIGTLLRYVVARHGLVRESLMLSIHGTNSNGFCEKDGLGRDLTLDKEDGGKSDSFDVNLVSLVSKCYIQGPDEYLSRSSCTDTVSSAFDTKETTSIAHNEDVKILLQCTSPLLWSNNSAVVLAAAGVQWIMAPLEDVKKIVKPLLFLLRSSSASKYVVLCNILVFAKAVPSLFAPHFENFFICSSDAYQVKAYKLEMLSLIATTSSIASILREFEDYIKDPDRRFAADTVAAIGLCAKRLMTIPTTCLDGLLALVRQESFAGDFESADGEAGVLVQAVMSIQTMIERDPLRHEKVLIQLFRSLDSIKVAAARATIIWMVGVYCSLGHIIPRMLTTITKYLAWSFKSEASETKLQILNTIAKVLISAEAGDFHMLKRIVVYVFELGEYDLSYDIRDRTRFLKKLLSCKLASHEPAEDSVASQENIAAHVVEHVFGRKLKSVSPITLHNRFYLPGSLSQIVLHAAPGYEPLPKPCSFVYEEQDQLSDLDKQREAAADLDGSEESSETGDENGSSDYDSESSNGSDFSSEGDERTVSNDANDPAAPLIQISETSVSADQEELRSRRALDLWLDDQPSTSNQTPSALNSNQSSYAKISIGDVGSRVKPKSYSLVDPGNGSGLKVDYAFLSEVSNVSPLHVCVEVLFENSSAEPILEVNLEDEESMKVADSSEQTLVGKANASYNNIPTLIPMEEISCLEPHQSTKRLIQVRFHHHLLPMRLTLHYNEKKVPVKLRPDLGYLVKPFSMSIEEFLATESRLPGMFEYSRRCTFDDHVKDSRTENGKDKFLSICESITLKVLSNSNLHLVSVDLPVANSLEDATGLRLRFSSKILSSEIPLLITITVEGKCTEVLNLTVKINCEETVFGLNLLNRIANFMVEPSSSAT

[4] = target: AP5B (Arabidopsis thaliana)

Measured: binding

B1: SH3P2 (protein, UniProt Q8VWF1 1-368)
chain: MDAIRKQASRLREQVARQQQAVFKQFGGGGYGSGLADEAELNQHQKLEKLYISTRAAKHYQRDIVRGVEGYIVTGSKQVEIGTKLSEDSRKYGSENTCTNGNVLTRAALNYGRARAQMEKERGNMLKALGTQVAEPLRAMVLGAPLEDARHLAQRYDRMRQEAEAQATEVARRQAKARESQGNPDILMKLESAEAKLHDLKSNMTILGKEAASALASVEDQQQKLTLERLLSMVESERAYHQRVLQILDQLEGEMVSERQRIEAPSTPSSADSMPPPPSYEEANGVFASQMHDTSTDSMGYFLGEVLFPYHGVTDVELSLSTGEYVVVRKVTGSGWAEGECKGKAGWFPYGYIERRERVLASKVSEVF
binds: all assays above
